The text below walks through data of PMC5996148.

The other results are listed elsewhere or left out.

Among the test systems are LONRF2 (human); LPXN (human); LRP10 (human); LRRC14 (human); LRRIQ2 (human); LTB (human); LXN (human); LY6E (human); LY6G6C (human); LYPD1 (human).
Holding throughout (assay): protein microarray (ProtoArray v5.0), streptavidin-Alexa Fluor 647
What all share (conditions): 3'-biotin; 20 mM Tris (pH 7.5), 5 mM MgCl2, 100 mM KCl, 0.1% Tween-20, A/T-rich and random oligonucleotide blockers; temperature not stated; high values mean tight binding

As for “GGGGACAGGGGTATGGGGAGGGG [G4-3 biotinylated (CtG)]”, the binding signal in the assay with LONRF2 (human) is -0.29 z-score; with LPXN (human), -0.336 z-score; with LRP10 (human) it was -0.308 z-score; in the assay on LRRC14 (human), -0.307 z-score; with LRRIQ2 (human) it was -0.329 z-score; in the assay on LTB (human), -0.33 z-score. Also, the binding signal was -0.303 z-score in the assay with LXN (human), -0.329 z-score in the assay with LY6E (human), -0.329 z-score in the assay on LY6G6C (human) and -0.313 z-score in the assay with LYPD1 (human).
